Measured values published in PubChem BioAssay AID1439 (NMMLSC, 2008).
Values joined by “and” are separate entries in the source; they are usually repeats but may differ in a detail not shown here. Equal values may be shown once. The whole screen tested about 220,000 compounds, of which about 770 (0.35%) were called active. Inconclusive means that the source gave no clear call. Such entries were picked first, then a sample of the others. Cut-off read from the data, not from the text of the source: active = binding response below about 49% or above about 150%; inconclusive = no clear call, values can overlap the other calls; inactive = in between.

The chains behind the UniProt entries cited, without tags or fusion partners.
UniProt P09471, whole entry, looked up: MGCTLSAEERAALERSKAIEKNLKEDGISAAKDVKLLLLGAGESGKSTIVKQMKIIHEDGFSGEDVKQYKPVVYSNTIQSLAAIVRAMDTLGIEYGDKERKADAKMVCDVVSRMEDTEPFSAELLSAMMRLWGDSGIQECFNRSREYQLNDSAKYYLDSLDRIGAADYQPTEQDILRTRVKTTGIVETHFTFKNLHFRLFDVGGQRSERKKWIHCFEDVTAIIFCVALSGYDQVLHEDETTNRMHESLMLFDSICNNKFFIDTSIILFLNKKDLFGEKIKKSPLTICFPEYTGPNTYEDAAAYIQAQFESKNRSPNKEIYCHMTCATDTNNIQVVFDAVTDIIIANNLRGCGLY

molecular target: Guanine nucleotide-binding protein G(o) subunit alpha (Homo sapiens) (UniProt P09471); assay: RGS7-Galphao binding modulators, primary screen, biochemical, multiplexed bead flow cytometry (AID 1439); conditions: at 10 µM, actives lie on both sides;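 note: fluorescent Galphao held in activated GDP-AlF4 state binding bead-coupled RGS7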

Row | SMILES | binding response (% of control)
1 | CN(C)S(=O)(=O)Nc1cccc(Br)c1 | inconclusive: 41% and inconclusive: 99.2%
2 | O=C(O)c1cccc(S(=O)(=O)Nc2ccc([N+](=O)[O-])cc2O)c1 | inconclusive: 129%
3 | CN(CCS(=O)(=O)c1ccc(Cl)cc1)Cc1cccnc1 | inconclusive: 77.7%
4 | O=C(COC(=O)c1ccc[nH]c1=O)NC1CCCCC1 | inconclusive: 74.8%
5 | CC(C)CC(C(=O)OCC(=O)c1c(N)n(C)c(=O)n(C)c1=O)N1C(=O)C2CC=CCC2C1=O (stereo not drawn) | inconclusive: 98.7%
6 | CNC(=O)/C(=C\c1ccc2c(c1)OCO2)NC(=O)c1ccc(Br)cc1 | inactive: 96.3%
7 | Cc1c(Cl)cccc1NC(=S)N1CCN(c2ccc([N+](=O)[O-])cn2)CC1 | inconclusive: 114%
8 | COc1ccccc1-n1c(-c2ccccc2)c[n+]2c1CCc1ccccc1-2 | inconclusive: 95.4%
9 | CN(CC1CCOCC1)C(=O)CC1C(=O)NCCN1C/C=C/c1ccccc1 (stereo not drawn) | inactive: 99.9%
10 | CCOC(=O)C(CCCCCCC(NC(C)=O)(C(=O)OCC)C(=O)OCC)(NC(C)=O)C(=O)OCC | inconclusive: 2.81%
11 | CSC1=NCCN1C(=O)c1c(-c2c(F)cccc2Cl)noc1C | inconclusive: 93.7%
12 | COc1ccc(NC(=S)NCCCN2CCCC2=O)c(OC)c1 | inconclusive: 122%
13 | COc1ccc(NC(=O)Cn2c(=O)n(-c3ccccc3)c(=O)c3oc4ccccc4c32)c(OC)c1 | inactive: 109%
14 | COc1ccc(/C=C/C(=O)C23CC4CC(CC(C4)C2)C3)cc1CN1CCOCC1 | inactive: 100%
15 | CNc1ncnc(Sc2ccc(Cl)cc2)c1[N+](=O)[O-] | inconclusive: 87.5%
16 | N#Cc1ccc(COn2nnc3ccccc32)cc1 | inconclusive: 103%
17 | COc1cc(OC)c(OC)cc1/C=C1\Oc2cc(OS(C)(=O)=O)ccc2C1=O | inconclusive: 42.2%
18 | CCOC(=O)c1cnc2c(OC)cccc2c1N1CCN(c2ccccn2)CC1 | inconclusive: 88.6%
19 | COC(=O)Cc1[nH]c(=S)[nH]c1C(=O)OC | inconclusive: 101%
20 | CCOc1cc(/C=C2/SC(=S)N(CC(=O)O)C2=O)ccc1OC(=O)c1cccs1 | inconclusive: 84.4%

Row | SMILES | binding response (% of control)
21 | O=C(COc1ccccc1Br)N1CCN(c2ccccc2)CC1 | inactive: 106%
22 | CC(=O)O/C(=C\c1cn(C(C)=O)c2ccccc12)C(=O)O | inconclusive: 111%
23 | O=C1NC[C@@H](Cc2ccc(O)cc2)N(CCc2cccc3ccccc23)C1=O | inconclusive: 87.2%
24 | O=C(NC(=S)Nc1ccccc1C(=O)O)c1ccc2ccccc2c1 | inconclusive: 118%
25 | C#Cc1cccc(NC(=O)CSc2nnc(-c3ccc(C(F)(F)F)cn3)o2)c1 | inconclusive: 94.5%
26 | C=CCn1cc(/C=C2\SC(N3CCOCC3)=NC2=O)c2ccccc21 | inconclusive: 93.8%
27 | CCN(CC)CCn1c(=N)n(CC(O)COc2cccc(C)c2)c2ccccc21 (stereo not drawn) | inconclusive: 77.8%
28 | COc1cc2c(cc1OC)C(Nn1cnnc1)=NC1(CCCC1)C2 | inconclusive: 107%
29 | O=C(NCCO)Nc1ccc2nc(-c3ccco3)c(-c3ccco3)nc2c1 | active: 39.5%
30 | COc1cccc(CNc2ncn[nH]2)c1OCc1ccc(F)cc1 | inactive: 103%
31 | Cc1ccc(C(=O)COC(=O)CCC(=O)Nc2ccccc2Cl)cc1[N+](=O)[O-] | inactive: 99.5%
32 | CC(C)N(C(=O)COC(=O)CNS(=O)(=O)c1ccccc1F)c1ccccc1 | inconclusive: 112%
33 | CC(C)C(=O)Nc1nnc(-c2ccco2)s1 | inconclusive: 85.7%
34 | Cc1cccc(OS(=O)(=O)NC(=O)OCC2CCCN3CCCCC23)c1 (stereo not drawn) | inactive: 97.9%
35 | COc1cc(OC)c2ccc(=O)oc2c1C(CC(=O)N1CCOCC1)c1ccc2c(c1)OCO2 (stereo not drawn) | inconclusive: 133%
36 | Cc1cccc(Oc2cc([N+](=O)[O-])cc3c2C(=O)Nc2ccccc2O3)c1 | inactive: 93.4%
37 | O=C(Cn1cnc(Cl)c1Cl)c1ccc(F)cc1 | inconclusive: 88.2%
38 | O=c1/c(=C/c2ccco2)sc2n1CN(c1ccccc1)CN=2 | inactive: 93.8%
39 | CC(C)OC(=O)c1cc2c(ccn2-c2ccc(F)cc2)n1CC(=O)N1CCN(C(=O)c2ccco2)CC1 | inconclusive: 105%
40 | O=C1NCCn2ccc(=O)cc21 | inconclusive: 409%

Compounds listed so far containing an aryl thioether with sulfur outside any ring, in the order listed:
Row | SMILES | binding response (% of control)
15 | CNc1ncnc(Sc2ccc(Cl)cc2)c1[N+](=O)[O-] | inconclusive: 87.5%
25 | C#Cc1cccc(NC(=O)CSc2nnc(-c3ccc(C(F)(F)F)cn3)o2)c1 | inconclusive: 94.5%

Next part:

Row | SMILES | binding response (% of control)
41 | Cc1cc(NS(=O)(=O)c2ccc(NC(=O)CSc3nc4ncccc4[nH]3)cc2)nc(C)n1 | inconclusive: 83.5%
42 | Nc1nc(-c2ccc(Cl)cc2)nn1C(=O)c1cccs1 | inactive: 103%
43 | Cc1c(C(=O)C(=O)NCc2ccco2)c2ccccc2n1C | inconclusive: 78.9%
44 | CC(C)CNC(=O)Nc1ccccc1F | inconclusive: 95.3%
45 | COc1ccccc1/C=C/C(=O)/C=C/c1ccccc1O | inconclusive: 108%
46 | CC(=O)N1CC2([N+](=O)[O-])CN(C(C)=O)CC([N+](=O)[O-])(C1)C2(C)C | inactive: 111%
47 | Cc1ccsc1/C=N/NC(=O)C1CC(=O)N(c2ccc(F)cc2)C1 (stereo not drawn) | inconclusive: 82.5%
48 | OCC1(O)OC[C@@H](O)[C@H]1O (stereo partly drawn) | inconclusive: 115%
49 | O=C1N/C(=N/N=C/c2ccc(O)cc2)SC1Cc1ccccc1 (stereo not drawn) | inconclusive: -74.8%
50 | Cc1ccc(OCCCCn2c(CO)nc3ccccc32)cc1 | inactive: 101%
51 | COc1ccc(-c2nc3cnccn3c2NC(C)(C)CC(C)(C)C)cc1O | inconclusive: 88.4%
52 | CCC(C)NC(=O)C1c2ccccc2C(=O)N1Cc1ccccc1OC (stereo not drawn) | inactive: 93.8%
53 | CC1(OC(=O)CCc2ccccc2)C(=O)C=C2C=C(c3ccsc3)OC=C2C1=O (stereo not drawn) | inconclusive: 45.1%
54 | NS(=O)(=O)c1cccc(-n2cnnn2)c1 | inconclusive: 98.6%
55 | Cc1ccsc1/C=N/N1CCN(Cc2ccccc2)CC1 | inactive: 103%
56 | COc1ccc(NC2=CC(c3ccccc3)N(c3ccc(OC)cc3)C2=O)cc1 (stereo not drawn) | inconclusive: 272%
57 | CCCOc1ccc(-c2nnn(CC(=O)N3CCCC(C)C3)n2)cc1 (stereo not drawn) | inconclusive: 91%
58 | CC(C)Oc1nc(-c2ccccc2Cl)nc2ccccc12 | inconclusive: 96.3%

Quoted at random: two records from the list
Row | SMILES | binding response (% of control)
30 | COc1cccc(CNc2ncn[nH]2)c1OCc1ccc(F)cc1 | inactive: 103%
35 | COc1cc(OC)c2ccc(=O)oc2c1C(CC(=O)N1CCOCC1)c1ccc2c(c1)OCO2 (stereo not drawn) | inconclusive: 133%
